Laboratory results reported in PMC5622079, “Control of leucine-dependent mTORC1 pathway through chemical intervention of leucyl-tRNA synthetase and RagD interaction” (Nature Communications, 2017).
Results are given in words; binding and its absence hold for the method and conditions named. Binding seen in cells or lysates may run through a third protein. Some binding calls cover weakened binding; strength is not graded here.

Chains of the proteins cited; added tags and fusions are not shown. Lines headed by an entry give the natural chain unless they say otherwise; changes in a name come on top. A line that says so, or that is headed by a name, gives the form on record, which may keep a tag or linker. Residues count along the entry.
UniProt Q9P2J5: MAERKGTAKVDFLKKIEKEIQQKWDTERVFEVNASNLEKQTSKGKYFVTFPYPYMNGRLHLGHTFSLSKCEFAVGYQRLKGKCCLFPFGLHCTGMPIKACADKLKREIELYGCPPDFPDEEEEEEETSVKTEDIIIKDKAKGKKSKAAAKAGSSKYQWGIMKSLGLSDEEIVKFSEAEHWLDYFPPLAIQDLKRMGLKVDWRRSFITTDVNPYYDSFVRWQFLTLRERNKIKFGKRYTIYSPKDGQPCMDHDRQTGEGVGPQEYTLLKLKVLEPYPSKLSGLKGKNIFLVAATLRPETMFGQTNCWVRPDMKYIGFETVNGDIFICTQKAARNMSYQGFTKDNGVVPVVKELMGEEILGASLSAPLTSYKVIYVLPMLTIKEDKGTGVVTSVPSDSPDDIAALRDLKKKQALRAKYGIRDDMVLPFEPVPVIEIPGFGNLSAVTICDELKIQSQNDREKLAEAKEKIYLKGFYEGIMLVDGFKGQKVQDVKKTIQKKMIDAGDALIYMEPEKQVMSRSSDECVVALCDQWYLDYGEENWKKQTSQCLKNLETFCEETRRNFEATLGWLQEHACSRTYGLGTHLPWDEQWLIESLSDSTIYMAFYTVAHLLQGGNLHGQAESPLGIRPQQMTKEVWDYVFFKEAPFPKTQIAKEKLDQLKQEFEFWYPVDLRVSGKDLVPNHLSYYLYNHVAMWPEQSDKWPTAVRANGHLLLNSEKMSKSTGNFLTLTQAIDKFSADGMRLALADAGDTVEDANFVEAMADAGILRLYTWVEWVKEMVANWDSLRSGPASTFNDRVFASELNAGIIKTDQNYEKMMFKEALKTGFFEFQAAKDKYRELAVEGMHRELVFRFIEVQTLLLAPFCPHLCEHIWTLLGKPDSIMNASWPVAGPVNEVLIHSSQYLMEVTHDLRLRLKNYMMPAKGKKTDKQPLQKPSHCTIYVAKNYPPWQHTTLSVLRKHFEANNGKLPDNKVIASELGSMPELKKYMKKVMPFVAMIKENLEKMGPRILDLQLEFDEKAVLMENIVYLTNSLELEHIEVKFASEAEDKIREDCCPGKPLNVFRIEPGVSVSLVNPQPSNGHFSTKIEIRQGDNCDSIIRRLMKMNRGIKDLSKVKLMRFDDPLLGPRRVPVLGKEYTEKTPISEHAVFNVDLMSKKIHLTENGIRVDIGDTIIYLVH
GST-LRS (aa 951–1176), wild type: residues 951-1176 of Q9P2J5
GST-LRS (957–1176 aa): residues 957-1176 of Q9P2J5
GST-LRS (aa 951–1176) R956A (Q9P2J5, form named): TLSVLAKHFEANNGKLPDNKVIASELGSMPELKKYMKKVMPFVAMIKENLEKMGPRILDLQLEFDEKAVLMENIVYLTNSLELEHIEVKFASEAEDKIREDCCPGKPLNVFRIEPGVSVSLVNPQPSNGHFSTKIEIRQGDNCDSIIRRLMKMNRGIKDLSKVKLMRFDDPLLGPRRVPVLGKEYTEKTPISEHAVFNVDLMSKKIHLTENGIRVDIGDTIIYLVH
GST-LRS (aa 951–1176) K957A (Q9P2J5, form named): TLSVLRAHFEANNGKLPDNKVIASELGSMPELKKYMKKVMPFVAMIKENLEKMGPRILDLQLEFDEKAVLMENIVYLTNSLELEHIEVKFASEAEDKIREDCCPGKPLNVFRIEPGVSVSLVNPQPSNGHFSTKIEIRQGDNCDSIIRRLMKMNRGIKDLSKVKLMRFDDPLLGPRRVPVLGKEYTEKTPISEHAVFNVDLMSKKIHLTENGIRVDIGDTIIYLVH
GST-LRS (aa 951–1176) S974A (Q9P2J5, form named): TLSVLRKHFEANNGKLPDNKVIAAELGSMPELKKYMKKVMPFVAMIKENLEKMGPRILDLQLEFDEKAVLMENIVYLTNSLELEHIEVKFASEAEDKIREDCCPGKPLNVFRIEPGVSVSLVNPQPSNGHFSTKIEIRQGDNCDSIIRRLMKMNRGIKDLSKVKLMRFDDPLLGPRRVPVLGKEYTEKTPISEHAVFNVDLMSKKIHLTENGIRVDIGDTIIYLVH
UniProt Q9NQL2: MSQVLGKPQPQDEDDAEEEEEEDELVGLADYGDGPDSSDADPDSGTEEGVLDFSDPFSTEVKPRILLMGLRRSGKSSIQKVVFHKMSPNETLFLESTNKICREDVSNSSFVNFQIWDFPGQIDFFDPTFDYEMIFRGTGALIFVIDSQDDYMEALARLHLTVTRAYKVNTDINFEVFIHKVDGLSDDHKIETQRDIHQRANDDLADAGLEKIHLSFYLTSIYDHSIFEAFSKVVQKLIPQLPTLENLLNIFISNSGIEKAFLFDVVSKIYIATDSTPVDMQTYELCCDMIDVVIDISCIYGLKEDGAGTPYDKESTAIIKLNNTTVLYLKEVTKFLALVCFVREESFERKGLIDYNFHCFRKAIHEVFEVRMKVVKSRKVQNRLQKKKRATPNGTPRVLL

What was measured:
[1] = target: Myc-tagged LRS WT (human) (UniProt Q9P2J5); assay: co-IP; SW620 cells co-transfected with Myc-LRS (WT, S974A or S953A) and HA-RagD WT; treated or not with 10 μM BC-LI-0186 for 1 h; immunoprecipitation with anti-Myc antibody
[2] = target: Myc-tagged LRS S974A (human) (UniProt Q9P2J5); assay: as above
[3] = target: Myc-tagged LRS S953A (human) (UniProt Q9P2J5); assay: as above
[4] = target: GST-LRS (957–1176 aa) (human) (UniProt Q9P2J5); assay: pull-down; in vitro pull-down of GST-LRS (957–1176 aa) and Myc-RagD with a series of BC-LI-0186 concentrations; band intensity of Myc-RagD quantified; only the target purified
[5] = target: GST-LRS (aa 951–1176), wild type (human) (UniProt Q9P2J5); assay: pull-down; purified GST or GST-LRS (aa 951–1176), WT or alanine mutants, incubated with Myc-RagD WT-transfected SW620 cell lysates; precipitated with glutathione sepharose beads; anti-Myc immunoblot; only the target purified
[6] = target: GST-LRS (aa 951–1176) R956A (human) (UniProt Q9P2J5); assay: as above
[7] = target: GST-LRS (aa 951–1176) K957A (human) (UniProt Q9P2J5); assay: as above
[8] = target: GST-LRS (aa 951–1176) S974A (human) (UniProt Q9P2J5); assay: as above
[9] = target: GST-LRS (aa 951–1176), wild type (human) (UniProt Q9P2J5); assay: pull-down; LRS WT and mutants with Myc-RagD, with or without BC-LI-0186; the text says in vitro pull-down, the legend co-immunoprecipitation
[10] = target: GST-LRS (aa 951–1176) R956A (human) (UniProt Q9P2J5); assay: as above
[11] = target: GST-LRS (aa 951–1176) K957A (human) (UniProt Q9P2J5); assay: as above
[12] = target: GST-LRS (aa 951–1176) S974A (human) (UniProt Q9P2J5); assay: as above
[13] = target: Leucyl-tRNA synthetase (LRS), endogenous (human) (UniProt Q9P2J5); assay: co-IP; endogenous proteins; cells treated or not with 10 μM BC-LI-0186 (or BC-LI-0198) for 1 h; lysates immunoprecipitated with anti-LRS, anti-RagD or anti-mTOR antibodies; immunoblot

Measured: binding

HA-tagged RagD WT (from UniProt Q9NQL2 1-400)
binds: [1] | [2] | [3]

Myc-RagD WT (from UniProt Q9NQL2 1-400)
not listed: [1] | [2] | [3] | [13]
binds: all other assays above

RagD, endogenous (from UniProt Q9NQL2 1-400)
binds: [13]
